Laboratory results reported in PubChem BioAssay AID493014 (National Center for Advancing Translational Sciences (NCATS), 2011).
Some of the results follow. The main result of the screen is listed elsewhere. These columns were measured beside it and carry no call. Most of these compounds were active or inconclusive in the main read-out, so they are no random draw. The note in brackets gives the kind of curve behind each potency; many fits are weak.

Test: qHTS Assay to Find Inhibitors of Chronic Active B-Cell Receptor Signaling
Settings: ABC-DLBCL IkBa-CBG/CBR reporter, luminescence ratio (green luciferase fused to IkBa over red control in TMD8 lymphoma cells), 4 h
From the text: NIH Molecular Libraries Probe Production Network [MLPCN] NIH Chemical Genomics Center [NCGC] MLPCN Grant: 1 R03 DA031086-01A1 PI Name: Dr. R. Eric Davis NCGC Assay Overview: Diffuse large B-cell lymphoma (DLBCL) is the most common category of non-Hodgkin lymphoma, with ~20,000 new cases per year in the United States. DLBCL should be regarded as a collection of different neoplasms. Microarray gene expression analysis has defined two principal types of DLBCL, named for their similarity to normal B cell stages or activation states: a germinal center B-cell (GCB) type, and an activated B-cell (ABC) type. In ABC-DLBCL, a constitutive high-level activity of the NF-kappaB family of transcription factors has been observed (1) and NF-kappaB target genes are more highly expressed in ABC primary tumors than in GCB tumors. Functional studies have shown a constitutive high-level activity of the IkappaB (inhibitor of kappa-B) kinase (IKK) complex. […] Further analysis of DLBCL primary tumors for NF-kappaB target gene expression imply that although CARD11 is required for constitutive IKK activity in all ABC-DLBCL lines, mutations in CARD11 may be the root cause of IKK activation only in lines or tumors with such mutations. In other words, CARD11 mutations may explain NF-kappaB activation in only 10% of ABC-DLBCL cases. […] This process has been termed 'chronic active BCR signaling' (CABS). The goal of this screen is to find small-molecule inhibitors of the CABS pathway found in ABC-DLBCL lines using a cell-based assay that measures IkappaBalpa stability, which has already been extensively validated in the OCI-Ly3 line (PubChem AID:445; REF: 4). […] The assay uses green (CBG68) and red (CBR) emitting beetle luciferases [Chroma-GloTM developed by Promega Corp.] where the green luciferase is fused to IkappaBalpha and the red luciferase is present in its native state. Both luciferase genes are stably present in the TMD8 human ABC DLBCL cell line, but their expression is under the control of tetracycline-inducible promoters. Following the addition of doxycycline to induce expression of the luciferases, the green luminescence in control cultures rises only slowly because the CBG fusion partner IkappaBalpha is targeted by IKK activity for rapid degradation. In contrast, green luminescence rises rapidly in the presence of proteasome inhibitors or IKK inhibitors. The rise in red luminescence of CBR is not affected by proteasome or IKK inhibitors, and serves as normalization for cell number and nonspecific effects. Compounds were screened as a concentration-titration series that ranged from 46 uM to 3 nM.
NCGC Assay Protocol Summary: Cells were seeded in 1536-well plates at 5000 cells/4uL in IMDM medium containing 0.5% FBS, w/o phenol red, 1% penicillin/streptomycin. Then, 23 nL of compounds or DMSO were delivered to each well using a pin tool. One uL 20ng/ml doxycycline was then dispensed into white solid 1536-well plates and the plates were incubated at 37C/5% C02 in a cell incubator for 4 hrs. Then 4 uL luminescent substrate mix (in-house prepared: 150 mM Tris-Cl, pH 7.6, 3 mM MgCl2, 1% Triton X-100, 5 mM DTT, 0.2 mM CoA, 0.15 mM ATP, 5 mM D-luciferin, final concentrations) was added to each well. The plate was incubated at r.t. for 10-15 min. The plates were measured on a ViewLux plate reader for green luminescence (540/20 nm filter) and red luminescence (618/8 nm filter). The green and red luminescent signals were corrected for red and green luminescence filter overlap using previously determined filter calibration constants (determined using the procedure outlined in the Promega Technical Manual; REF 4). The %Activity was determined from the ratio of corrected green/red luminescent values. MG132 were used as control. […] Red luminescent %Activity was normalized to the difference between red luminesence in basal cells (0%Activity) and zero luminescence (-100% Activity). […]

[1] = measured here: CBR red luminescence, cell number
[2] = measured here: IkBa-CBG green luminescence

Row | SMILES | AC50 [1] | AC50 [2]
1 | CC(=O)N1CCN(CC(=O)Nc2ccc(C)c(F)c2)CC1 | 7.94 µM [falling, single point] | –
2 | CC1=[N+](CC(=O)c2ccccc2)CCn2cccc21 | 3.55 µM [rising, partial curve, poor fit] | –
3 | Cc1ccc(S(=O)(=O)N2CCCCC2)cc1C(=O)OC(C)C(=O)NC1CCCCC1C (stereo unspecified) | 2.91 µM [falling, partial curve, poor fit] | –
4 | COc1c(Cl)cc(Cl)cc1C(=O)Nc1ccc(C(=O)O)cc1 | 7.31 µM [falling, partial curve] | –
5 | Clc1ccc(-c2nc(Cc3ccccc3Cl)no2)cc1 | 14.1 µM [rising, partial curve, poor fit] | –
6 | O=C(NN1CCCCC1)c1cccc(COc2ccc(Cl)cc2)c1 | 13 µM [falling, partial curve, poor fit] | –
7 | COc1ccccc1NC(=S)NC(=O)/C=C/c1cccs1 | 3.98 µM [falling, partial curve, poor fit] | –
8 | O=C(Nc1ccc(-c2csnn2)cc1)C1CC1 | 0.708 µM [rising, full curve, poor fit] | –
9 | CCc1cccc(C)c1NC(=O)c1cc(S(=O)(=O)N(Cc2ccc(C(=O)OC)cc2)Cc2ccc(OC)c(OC)c2)ccc1F | 0.631 µM [rising, full curve, poor fit] | –
10 | O=C(NC1=NCCS1)c1ccc(C(F)(F)F)cc1 | 2.51 µM [rising, full curve] | –
11 | Cc1ccc(NC(=S)N(CCN(C)C)C(C)c2cccnc2)c(C)c1 (stereo unspecified) | 0.0891 µM [falling, full curve, poor fit] | –
12 | COc1cccc(OCc2cc(C(=O)NCc3cnc4ccccn34)no2)c1 | 0.447 µM [falling, full curve, poor fit] | –
13 | Cc1ccccc1-c1noc(CCC(=O)NCCc2ccccc2)n1 | 5.62 µM [falling, single point] | –
14 | Cc1nc(N)sc1-c1csc(Nc2cccc(O)c2)n1 | 11.2 µM [falling, partial curve] | –
15 | C/C(=N\Nc1ccc([N+](=O)[O-])cc1)c1ccc(-n2nncc2C(C)(C)C)cc1 | 5.8 µM [falling, partial curve, poor fit] | –
16 | Cc1ccc([C@@H]2CC=C(C(=O)O)[C@H](c3ccccc3)N2S(=O)(=O)c2ccccc2C)cc1 | 0.291 µM [rising, full curve, poor fit] | –
17 | O=C(Nc1ccc2c(c1)OCCO2)N1CCOCC1 | 0.562 µM [falling, full curve, poor fit] | –
18 | O=C(O)c1ccc(CSc2nc3ccc(NC(=O)c4ccccc4C(=O)O)cc3s2)cc1 | 31.6 µM [falling, single point] | –
19 | CC(=O)c1cccc(NC(=O)C(C)OC(=O)CNC(=O)c2ccc(C)s2)c1 (stereo unspecified) | 35.5 µM [rising, single point] | –
20 | C=CC[C@@H](CC(=O)N(CCO)Cc1ccccc1)C(=O)N[C@@H](COC(=O)[C@@H](CC=C)CC(=O)OC(C)(C)C)Cc1c[nH]c2ccccc12 | 18.4 µM [falling, partial curve] | 29.1 µM [rising, partial curve, poor fit]
21 | O=c1c(/C=C(\O)c2ccc(F)cc2)nc2ccccc2n1-c1ccccc1 | 0.326 µM [falling, full curve] | –

An excerpt from above in order of count of non-hydrogen atoms, rising.
Row | SMILES | AC50 [1] | AC50 [2]
2 | CC1=[N+](CC(=O)c2ccccc2)CCn2cccc21 | 3.55 µM [rising, partial curve, poor fit] | –
5 | Clc1ccc(-c2nc(Cc3ccccc3Cl)no2)cc1 | 14.1 µM [rising, partial curve, poor fit] | –
18 | O=C(O)c1ccc(CSc2nc3ccc(NC(=O)c4ccccc4C(=O)O)cc3s2)cc1 | 31.6 µM [falling, single point] | –

Following part.

Row | SMILES | AC50 [1] | AC50 [2]
22 | CCn1c(=O)c2c3c(sc2n2cnnc12)CCC3 | 20.6 µM [falling, single point] | –
23 | CC(=O)C(N=Nc1ccccc1)(Sc1nnc(-c2ccccc2)n1-c1ccccc1)C(C)=O | 7.94 µM [falling, partial curve] | –
24 | COc1ccc(Cc2nnc(Cl)c3ccccc23)cc1OC | 17.8 µM [rising, partial curve] | 17.8 µM [falling, partial curve, poor fit]
25 | N=c1n(CCO)c2ccccc2n1Cc1ccc(Cl)cc1 | 22.4 µM [falling, single point] | –
26 | Cc1ccc(NC(=O)CSc2nc(=O)n(Cc3cccnc3)c3c2CCC3)cc1F | 11.2 µM [falling, single point] | –
27 | COc1ccc(OCC(=O)Nc2ccc3nc(C)sc3c2)cc1 | 1.78 µM [rising, partial curve, poor fit] | –
28 | COc1ccc(C2Oc3ccccc3C3=C2C(c2cccs2)n2ncnc2N3)cc1 (stereo unspecified) | 7.31 µM [falling, partial curve, poor fit] | 11.6 µM [rising, partial curve, poor fit]
29 | c1ccc2c(c1)oc1c(Nc3ccc(CN4CCOCC4)cc3)ncnc12 | 22.4 µM [falling, partial curve, poor fit] | –
30 | Cc1ccc2nc(N(CCCN(C)C)C(=O)c3ccc(S(=O)(=O)N4CCCCCC4)cc3)sc2c1 | 0.112 µM [rising, full curve, poor fit] | –
31 | COc1ccc(CNC(=O)CN2C(=O)C3CCCN3c3ncc(Cl)cc32)cc1 (stereo unspecified) | 0.291 µM [falling, full curve, poor fit] | –
32 | O=S(=O)([N-]c1nc2ccccc2nc1-[n+]1ccc(Cc2ccccc2)cc1)c1ccc(Br)s1 | 35.5 µM [falling, single point] | –
33 | Cc1ccc(CN(c2ccc(C(=O)N3CCCC3)cc2)S(C)(=O)=O)cc1 | 7.08 µM [rising, partial curve, poor fit] | –
34 | CC1(C2(O)CC(c3ccccc3)ON2)CCCCC1 (stereo unspecified) | 16.4 µM [rising, partial curve] | –
35 | COC(=O)C(C)C1Sc2ccccc2NC1=O (stereo unspecified) | 29.1 µM [rising, single point] | –
36 | CCOc1ccc(OCc2ccc(C(=O)NN=Cc3ccc[nH]3)cc2)cc1 | 8.2 µM [falling, single point] | –
37 | Cc1nc2sc(C(c3cccc(F)c3)N3CCCCC3)c(O)n2n1 (stereo unspecified) | 0.411 µM [rising, full curve, poor fit] | –
38 | Cc1ccc(C)c(NC(=S)N2CCN(S(C)(=O)=O)CC2)c1 | 3.16 µM [falling, partial curve, poor fit] | –
39 | NC(=O)c1ccccc1N/C=C/C(=O)c1ccc(Cl)cc1 | 2.31 µM [falling, full curve] | –
40 | COc1ccc(C)cc1NC(=O)C(Sc1nnc(-c2ccncc2)n1-c1ccc(Cl)cc1)c1ccccc1 (stereo unspecified) | 29.1 µM [falling, single point] | –
41 | Cc1ccc(C(=O)NC(=S)N2CCCCCC2)cc1 | 0.82 µM [rising, full curve, poor fit] | –
42 | CC(=O)c1ccc(N2CCN(C(=O)c3cc4c(-c5ccccc5F)nn(C)c4s3)CC2)cc1 | 16.4 µM [falling, single point] | 18.4 µM [rising, partial curve, poor fit]

Row | SMILES | AC50 [1] | AC50 [2]
43 | CC1(C)CC(=O)C(C=NCCc2ccccn2)=C(O)C1 | 3.66 µM [rising, partial curve, poor fit] | –
44 | O=C(N/N=C/c1cccnc1)c1ccccc1OCc1cccc(Br)c1 | 1.78 µM [falling, full curve] | –
45 | c1ccc2c(c1)COC(CNC1CCCCC1)OC2 | 17.8 µM [rising, partial curve, poor fit] | –
46 | CSc1ccc(OC2CCCCC2NS(=O)(=O)c2ccc(Cl)cc2)cc1 (stereo unspecified) | 3.66 µM [rising, single point] | –
47 | O=C(CSc1cn(Cc2ccccc2)c2ccccc12)Nc1nccs1 | 3.66 µM [falling, partial curve, poor fit] | –
48 | CCNC(=O)Nn1c(C)nnc1C | 23.1 µM [rising, single point] | –
49 | COc1ccc(-c2nn3c(C4CCCCC4)nnc3s2)cc1OC | – | 6.31 µM [falling, partial curve, poor fit]
50 | c1ccc(-c2ncc(CN3CCN(c4ccccn4)CC3)[nH]2)cc1 | 0.501 µM [rising, full curve, poor fit] | –
51 | COc1ccc(CCNC(=O)CS(=O)(=O)c2cn(CC(=O)N(C(C)C)C(C)C)c3ccccc23)cc1OC | 3.98 µM [rising, partial curve, poor fit] | –
52 | CC(=O)Nc1ccc(NC(=O)COc2c(C)cc(Br)cc2C)cc1 | 8.91 µM [falling, partial curve, poor fit] | –
53 | Cc1nc2ccccc2cc1OCc1ccc(Cl)cc1 | 0.146 µM [rising, full curve, poor fit] | –
54 | CCCc1cc(C(=O)Nc2ccc(F)cc2F)no1 | 2.91 µM [falling, partial curve, poor fit] | –
55 | CC(=O)Nc1cccc(NC(=O)c2ccccc2OCc2ccccc2)c1 | 8.91 µM [falling, partial curve] | –
56 | COC(=O)/C=C1/S/C(=N/NC(=O)c2ccccc2OC)NC1=O | 10 µM [falling, partial curve] | –
57 | COc1cc2c(cc1NC(=S)NC(=O)/C=C/c1ccco1)oc1ccccc12 | 10.3 µM [falling, partial curve, poor fit] | –
58 | CC(=O)Oc1ccc(N2C(=O)C3C4C=CC(O4)C3C2=O)cc1 (stereo unspecified) | 35.5 µM [falling, single point] | –
59 | COCCNC(=O)c1csc(Nc2cccc3ccccc23)n1 | 12.6 µM [falling, partial curve, poor fit] | –
60 | Clc1ccccc1C1=Nn2c(nnc2-c2ccncc2)SC1 | 12.6 µM [falling, single point] | –
61 | COCC1CCN(C(=O)c2cc(COc3ccc(C)c(C)c3)on2)C1 (stereo unspecified) | 12.6 µM [falling, partial curve, poor fit] | –
62 | COC(=O)c1c(NC(=O)COC(=O)[C@@H](NS(=O)(=O)c2cccc(Cl)c2)C(C)C)sc2c1CCC2 | 8.2 µM [falling, partial curve] | –
